Source: PubChem BioAssay AID588463 (National Center for Advancing Translational Sciences (NCATS), 2011)
About 15 (1%) of roughly 1,200 compounds were called active. Not shown: some 7% with an inconclusive outcome. Calls come from the whole dose curve; as a rule, active = well fitted activation curve with a large enough effect; inconclusive = small, poorly fitted or top-dose-only effect; inactive = flat fitted curve, though single readings scatter. This is one part of the list.

Target: Beta-2 adrenergic receptor (Homo sapiens) (UniProt P07550)
Assay: qHTS assay of beta-arrestin-biased ligands of beta2-adrenergic receptor: Hit Validation;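 note: plate controls were DMSO for no effect and maximal isoproterenol or metaproterenol response for full effect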
Details: cell-based beta-arrestin recruitment to beta2AR; Potency: activation; series mostly up to 46.1 µM; activation: at the top concentration
In short: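 Tango beta-arrestin recruitment assay in cells at 1500 cells/well in 1% FBS medium, 18 h compound exposure at 37 °C. Luciferase luminescence read 15 min after substrate addition; %activity curves classified by curve class.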

Compound | activation
COCCNC(=S)N/N=C(\C)c1ccccc1F | inactive: -1.09%
O=C(NCc1ccc(Cl)cc1)c1cccc(NC(=O)c2ccccc2)c1 | inactive: -3.54%
Cc1ccc(NC(=O)/C=C/c2ccc([N+](=O)[O-])s2)cc1 | inactive: -1.08%
COCc1cc(CN2CCCC2)c(O)c2ncccc12 | inactive: -2.36%
Cc1cc(C(=O)Nc2cccc3c2O[C@@H](CN(C)S(=O)(=O)c2ccccc2)[C@H](C)CN([C@@H](C)CO)C3=O)n(C)n1 | inactive: 0.0438%
COc1ccc(C(C)NC(=O)c2ccc(Br)cc2)cc1OC (stereo not drawn) | inactive: 8.18%
O=[N+]([O-])c1cccc(S(=O)(=O)Nc2nc3ccccc3nc2Nc2cccc(S(=O)(=O)N3CCCCC3)c2)c1 | inactive: -2.99%
CC(=O)Nc1ccc(C2=NN(c3ccccc3)C(c3cccs3)C2)cc1 (stereo not drawn) | inactive: -0.888%
CCN(CC)C(=O)[C@H]1CC(CC(=O)NCc2ccc(OC)c(OC)c2)C(=O)N2CCc3c([nH]c4ccccc34)[C@]12C (stereo partly drawn) | inactive: -7.37%
COc1ccc2ccccc2c1/C=N/NC(=S)NCCN1CCOCC1 | inactive: -2.79%
Oc1ccc(/C=N/NC(=S)NC2CC3CCC2C3)cc1 (stereo not drawn) | inactive: -3.62%
CC(C)NC(=S)N/N=C/c1cccs1 | inactive: 0.0651%
O=C(Cn1ncc(Cl)c(Cl)c1=O)c1ccc2c(c1)OCCO2 | inactive: -3.28%
COc1ccc(C2CC(O)(c3ccccc3)Oc3cc(OC)c(OC)c(OC)c32)cc1 (stereo not drawn) | inactive: -2.34%
Cc1cccnc1NC(=S)NCc1ccco1 | inactive: -4.61%
CC(=O)c1cccc(CN2CCN(CCC(C)C)C(CCO)C2)c1 (stereo not drawn) | inactive: -4.2%
CCOC(=O)Nc1ccc2c(c1)N(C(=O)N(CC)CC)c1ccccc1CC2 | inactive: -2.05%
COc1ccc(N2CCN(C(=O)CSc3nnc4n3C(C)(C)Cc3ccccc3-4)CC2)cc1 | inactive: -2.49%
CCOc1ccc(CNC(=S)N/N=C\c2ccc([N+](=O)[O-])cc2)cc1 | inactive: -0.211%
COc1ccc(NC(=O)C2C(=O)N(C)C3(C)CC2c2ccccc2O3)cc1 (stereo not drawn) | inactive: -1.4%
CNCc1ccccc1Sc1cc(O)ccc1O | inactive: -2.8%
CCCC(C(=O)N1CCOCC1)N1C(=O)C2C3C=CC(C3)C2C1=O (stereo not drawn) | inactive: -2.13%
COc1ccc(NS(=O)(=O)c2ccc3oc(SC4CCOC4=O)nc3c2)cc1 (stereo not drawn) | inactive: -2.61%

Three structures from above, sorted by SMILES length, smallest number first:
Compound | activation
COCCNC(=S)N/N=C(\C)c1ccccc1F | inactive: -1.09%
CC(=O)c1cccc(CN2CCN(CCC(C)C)C(CCO)C2)c1 (stereo not drawn) | inactive: -4.2%
O=[N+]([O-])c1cccc(S(=O)(=O)Nc2nc3ccccc3nc2Nc2cccc(S(=O)(=O)N3CCCCC3)c2)c1 | inactive: -2.99%

(next part)

Compound | activation
COc1cc(CNCCCN2CCOCC2)c(Br)cc1OCC(=O)Nc1ccccc1C | inactive: 1.75%
CN1/C(=C/C(=S)NC(=O)C2(C)CC2(Cl)Cl)C(C)(C)c2ccccc21 (stereo not drawn) | inactive: -1.09%
O=C(/C=C/c1ccc(F)cc1)NC(=S)N1CCN(Cc2ccccc2)CC1 | inactive: -2.33%
O=Cc1ccc(O)c2ncccc12 | inactive: 0.14%
Cc1cc(C)nc(-n2nc(C)cc2NC(=O)CN2CCCC2)n1 | inactive: -2.83%
COc1ccc(/C=C(\C#N)C(=O)OCC(=O)NCc2ccccc2)cc1 | inactive: -4.17%
Cc1cccc(OCC(=O)N/N=C/C=C/c2ccco2)c1 | inactive: -3.67%
COc1ccc2nc(NC(=O)[C@@H]3CCCN3C(=O)c3cccs3)sc2c1 | inactive: 0.537%
CCC(C(=O)Nc1cc(C)nn1-c1nc(C)cc(C)n1)c1ccccc1 (stereo not drawn) | inactive: -1.95%
CCOc1ccc(S(=O)(=O)NCCCn2ccnc2)cc1NC(C)=O | inactive: -5.39%
CCNc1nc(NCC)nc(N/N=C/c2ccc(N(C)C)cc2)n1 | inactive: -1.19%
CCCC1(C(=O)OCC)NC(c2ccc(OC)cc2OC)C2C(=O)N(c3ccc4c(c3)OCCO4)C(=O)C21 (stereo not drawn) | inactive: -2.03%
CCCn1c(Nc2nc3ccccc3n2C)nc2ccccc21 | inactive: -2.95%
CCNc1nc(NCC)nc(N(C)/N=C/c2ccco2)n1 | inactive: -0.197%
C/C(=N\NC(=S)NC(C)C)c1ccc(Cl)c([N+](=O)[O-])c1 | inactive: -2.51%
COc1cccc(C(=O)NC(=S)Nc2ccccc2N2CCCCC2)c1 | inactive: -1.12%
S=c1[nH]nc(-c2ccccc2)n1C1C=CCCC1 (stereo not drawn) | inactive: -0.185%
Clc1ccccc1C1Nc2cccc3cccc(c23)N1 | inactive: -2.65%
CCOc1cccc(/C=C/c2ccc3cccc(O)c3n2)c1OC | inactive: -1.23%
CS/C(N)=N/N=C/c1cc(C)ccc1O | inactive: -8.4%
O=C(NCc1ccco1)c1cccn2c(=O)c3c4c(sc3nc12)CCCC4 | inactive: -2.6%
CC(NC(=O)/C=C/c1ccco1)c1nc2ccccc2n1Cc1cccc(Cl)c1 (stereo not drawn) | inactive: -3.82%
CCOc1ccc(/C=N/NC(=S)NC2CC3CCC2C3)cc1 (stereo not drawn) | inactive: -0.951%

Compound | activation
O=C1NC(c2ccc(-c3ccccc3[N+](=O)[O-])o2)C(C(=O)c2ccccc2)C(O)(C(F)(F)F)N1 (stereo not drawn) | inactive: 8.4%
COc1ccc(NC(=S)Nc2ccccn2)cc1 | inactive: -0.613%
C/C(=N\NC(=S)NC1CCCCC1)c1cccs1 | inactive: -5.46%
C[C@H](CO)N1C[C@H](C)[C@@H](CN(C)Cc2ccc3c(c2)OCO3)Oc2c(NC(=O)Cc3ccccc3)cccc2C1=O | inactive: 4.2%
CCCC1=C/C(=C/c2ccc(-c3ccccc3OC)o2)C(=O)O1 | inactive: -2.17%
Oc1oc(-c2cccc3ccccc23)nc1/C=N/c1nccs1 | inactive: -0.65%
COc1cc(C=C(c2nc3ccccc3s2)c2nc3ccccc3s2)cc(OC)c1O | inactive: 3.82%
COc1cc(OC)cc(C(=O)Oc2c(CN3CCOCC3)cc(Cl)c3cccnc23)c1 | inactive: -3.45%
N/C(=N\OC(=O)C1CCCCC1)c1cccc(Br)c1 | inactive: -1.33%
COc1cc(/C=N/Nc2ccc(F)cc2F)cc(OC)c1O | inactive: -4.91%
C=CCn1c(CSc2nc3ccccc3s2)n[nH]c1=S | inactive: -1.62%
COc1ccc(CCNC(=O)C2CCN(Cc3nc(-c4ccccc4F)oc3C)CC2)cc1OC | inactive: -2.22%
Cc1cc(=O)n2cccc(O)c2n1 | inactive: -5.71%
COc1ccc(C(=O)Oc2c(CN3CCOCC3)cc(Cl)c3cccnc23)cc1 | inactive: -0.937%
O=C(C[n+]1ccccc1)Nc1ccccc1Br | inactive: -0.761%
COc1cc(/C=C/c2ccc3c(Br)cc(Br)c(O)c3n2)ccc1O | inactive: -2.11%
O=C(NCCc1ccccc1)c1cnc2sccn2c1=O | inactive: -4.24%
COC(=O)c1ccc(COC(=O)CNC(=O)C2CCCCC2)cc1 | inactive: -1.24%
CNC(=S)N/N=C(\C)c1ccc(Cl)s1 | inactive: -3.17%
COc1cnc(-c2ccccn2)nc1Oc1ccccc1 | inactive: -3.27%
CCOc1ccc(/C(CCC(=O)O)=N/NC(=S)NC(C)C)cc1 | inactive: -1.96%
Cc1ccc(CNS(=O)(=O)c2ccc(CN3C(=O)c4cccnc4C3=O)s2)o1 | inactive: 0.159%
CC1(C)CC(C)(c2ccc(O)cc2O)N(c2cccc(Cl)c2)C(=S)N1 (stereo not drawn) | inactive: 5.1%

Compound | activation
CN(C)/C=C1\C=C(c2ccccc2)OC1=O | inactive: -1.82%
COc1ccccc1-c1cc(C(=O)N2CCN(c3ccccc3OC)CC2)no1 | inactive: -1.04%
O=C1CNC(=S)N1c1nc2ccccc2s1 | inactive: -6.16%
Clc1ccc(Cn2c(/C=C/c3ccco3)nc3ccccc32)cc1 | inactive: -3.55%
Cc1cc(C(=O)C(C)Sc2cccc[n+]2[O-])c(C)n1-c1ccc(Cl)cc1 (stereo not drawn) | inactive: -3.82%
COCCCNC(=S)N/N=C/c1ccc(OC)c(Br)c1 | inactive: -1.26%
CC(=O)N1CCN(CC(=O)c2ccc(Br)cc2)CC1 | inactive: -1.68%
Cc1cccc(NC(=S)N/N=C/c2cccc([N+](=O)[O-])c2)c1 | inactive: -3.51%
C(=N\N=C\c1cccnc1)/c1cccnc1 | inactive: -2.73%
C(=C\c1ccco1)/C1=NN(c2ccccc2)C(c2ccco2)C1 (stereo not drawn) | inactive: -0.565%
Cn1cccc1C(=O)NC(=O)CSc1cccc[n+]1[O-] | inactive: -3.1%
NC(=S)NN=C1c2ccccc2-c2ccccc21 | inactive: -2.56%
C=C(C)CNC(=S)N/N=C/c1c(F)cccc1F | inactive: -2.74%
Cn1c(=O)n(/N=C/c2ccccc2)c2ccccc21 | inactive: -4.05%
Cc1ccc(C2CC2c2n[nH]c(=S)n2-c2cccc(C)c2)cc1 (stereo not drawn) | inactive: -2.82%
O=C(COC(=O)c1n[nH]c(=O)c2ccccc12)NCc1ccccc1 | inactive: -0.0692%
CCN(CC)C(=O)CN(c1cccc(OC)c1)S(=O)(=O)c1ccc(C)cc1 | inactive: -4.37%
CCN(CC)CCN(Cc1cc2cc3c(cc2[nH]c1=O)OCCO3)C(=S)NCC1CCCO1 (stereo not drawn) | inactive: -5.31%
Cc1nc(SCC(=O)N2CCOCC2)c2c3c(sc2n1)CCC3 | inactive: -2.56%
CC1(C)CC(=O)c2cnc(NCC3CCCO3)nc2C1 (stereo not drawn) | inactive: -2.57%
CCCn1nnc(NC(=S)NC(=O)Cc2ccccc2)n1 | inactive: 0.0105%
CN1CCN(c2ccc(C(F)(F)F)cc2NC(=O)c2ccco2)CC1 | inactive: -3.16%
C=CCn1c(-c2ccc(Cl)cc2)c[nH]c1=S | inactive: -0.418%

Compound | activation
Cc1cc(NC(=S)Nc2ccc(C)c(Cl)c2)n[nH]1 | inactive: -1.62%
CCn1c2ccccc2c2c3ncc4cccn4c3ccc21 | inactive: -0.556%
O=C(CSc1cccc[n+]1[O-])Nc1ccccc1Oc1ccccc1 | inactive: -3.96%
CCC1CCCCN1CC(=O)Nc1cc(C)nn1-c1nc(C)cc(C)n1 (stereo not drawn) | inactive: -2.24%
Cc1ccc(C(=O)Oc2ccc(Cl)c3cccnc23)cc1[N+](=O)[O-] | inactive: 4.83%
CCN(CC)c1ccc(NC2=C(Cl)C(=O)c3ccccc3C2=O)cc1 | inactive: -3.58%
N#Cc1nc(-c2ccc(OCc3ccc(Cl)cc3)cc2)oc1NCCCn1ccnc1 | inactive: -1.82%
C=CCOc1c(Br)cc(CNc2ccc(NC(=O)C(C)C)c(OC)c2)cc1OCC | inactive: -3.48%
S=C(NCCN1CCOCC1)N/N=C/c1cccs1 | inactive: -3.37%
CCCCn1c(Cc2ccccc2)n[nH]c1=S | inactive: -2.41%
CC(=O)Nc1ccc(S(=O)(=O)N2CCC(c3nnc(-c4ccc(C)cc4)o3)CC2)cc1 | inactive: -2.84%
Cc1cc(Cl)ccc1NC(=S)Nc1ccccn1 | inactive: -0.457%
O=C1NC2(C=Cc3c(ccc4ccccc34)O2)Oc2ccccc21 (stereo not drawn) | inactive: -3.25%
O=C(CS(=O)(=O)c1ccccc1)Nc1nc2ccccc2s1 | inactive: 0.232%
Cc1noc(C)c1COc1cccc(C(=O)Nc2ccccc2N2CCOCC2)c1 | inactive: -1.11%
O=C(/C=C/c1ccccc1)/C=C/c1ccccc1 | inactive: -4.44%
C/C(CC1CC2=C(CC1(C)C)C(C)(C)CCC2)=N\NC(N)=S (stereo not drawn) | inactive: -3.25%
O=C(Oc1c(Cl)cc(Cl)c2cccnc12)c1ccco1 | inactive: 1.01%
CCc1nnc(NC(=O)c2ccc3ccccc3n2)s1 | inactive: 2.67%
CCOC(=O)c1c(NC(=O)CSc2cccc[n+]2[O-])sc(C(=O)Nc2ccccc2)c1C | inactive: -0.439%
COc1ccc2c(c1)OC[C@H]1[C@H]2N2C(=O)c3ccc(C)cc3NC(=O)[C@@]2(C)[C@H]1c1ccccc1 | inactive: -0.129%
